Measurements taken from patent US20250206773A1, “FORMS AND COMPOSITIONS OF SODIUM CHENODEOXYCHOLATE” (Syntis Bio, Inc., priority 2022, published 2025).
Where two headings read alike, the source gives them in different places. For at least one compound, name, drawing or mass did not settle the structure.

Tests used:
[1] = Polymorph screening: slurry with sonication; format: physicochemical; conditions: sonicated 15 minutes then 5° C. for 30 minutes, 6 cycles
Method: Around 15 mg of NaCDC Form B was weighed into HPLC vials and 0.4 mL of corresponding solvents were added at RT. The slurries were sonicated for 15 minutes and then left to cool at 5° C. for 30 minutes—this cycle was repeated 6 times. At the end of the sixth cycle, all experiments were air-dried on filter paper and the recovered solids were analyzed by XRPD. Based on the XRPD data, some experiments were analyzed by HPLC.

[2] = Polymorph screening: slow evaporation; format: physicochemical
Method: Five stock solutions (with MeOH, water, 2,2,2-trifluoroethanol, MeOH:EtOAc (1:1 v/v) and MeOH:acetone (1:1 v/v)) were prepared with NaCDC Form B at RT. The final concentration of each solution was near that obtained from the Solubility Studies described in Example 8. Around 19-23 mg of NaCDC Form B was weighed into 1.6 mL HPLC vials (or 8 mL flask in the case of stock solutions with MeOH:EtOAc and MeOH:acetone) and dissolved in appropriate solvents at RT. In the case of the stock solution with water, around 40 mg NaCDC Form B was used. The experiments were kept at RT for 1 h with stirring (500 rpm) and then the solutions were filtered with 0.45 μm PTFE filters. During filtration of the stock solution with water, a foaming phenomenon was observed, and therefore, filtration was performed slowly and in several steps. The filtered solutions were then evaporated slowly under atmospheric pressure at 25° C. (experiments EV01-05) or at 50° C. (experiments EV06-09). After complete evaporation of the solvent, the solids were recovered and analyzed by XRPD. Depending on the results obtained from the XRPD analysis and also material availability, some experiments were analyzed by HPLC and TG/DSC.

[3] = Polymorph screening: solvent drop grinding; format: physicochemical; conditions: grinding 10 min. at RT
Method: Around 20 mg of NaCDC Form B was ground together with 10 μL aliquots of the corresponding solvent for 10 minutes at RT using an agate mortar with pestle. When total evaporation of the solvent was observed, another aliquot of 10 μL solvent was added and this procedure was repeated until experiment completion time. All solids were analyzed by XRPD. For the experiments where phase transformation was observed via XRPD, additional analyses of TG/DSC and/or HPLC were performed.

[4] = Polymorph screening: slurry (XRPD, HPLC of recovered solids); format: physicochemical; conditions: slurry 7 days
Method: Around 15 mg of NaCDC Form B was weighted into HPLC vials, and the appropriate volume of solvent was added at RT. Slurries were aged for 7 days under stirring (500 rpm), at multiple temperatures: 5° C., 25-30° C., 40° C., and 50° C. All solids were air-dried on filter paper and then analyzed by XRPD. Depending on the results obtained by XRPD and material availability, some experiments were analyzed by HTPLC and TG/DSC.

[5] = format: physicochemical
Method: HPLC analysis was carried out on an Agilent 1260 Infinity chromatograph, using a Hichrom C18 column 100×4.6 mm, 3.5 m, at 40° C. Method details were as follows:
Around 10 mg of NaCDC Form B was weighed into clear HPLC vials and the selected solvents (500 μL) were added to the vials. Experiments ST07, 09, 11, 13, 15, 17, 19 and 21 were kept stirring for 24 h at 30° C. and 60° C., while samples were taken after 4 h and 24 h for HPLC analysis. Subsequently, the same experiments were evaporated at 30° C. for 24 h under reduced pressure (21-22 mbar), and the solids were evaluated by HPLC and XRPD. Separately, the solutions and slurries from experiments ST10, 12, 14, 16, 18, 20 and 22 were stirred for 24 h at 30° C. and 60° C. (no samples were taken) and evaporated at 60° C. for 24 h under reduced pressure (20-21 mbar). The recovered materials were sampled for HPLC and XRPD analyses.

[6] = Polymorph screening: vapor diffusion onto solids; format: physicochemical
Method: Around 20 mg of NaCDC Form B were weighed into 1.6 mL HPLC vials. Each of the aforementioned vials was inserted individually into 40 mL vessels containing initially 0.5 mL of the corresponding solvent. The vessels were isolated from light and atmosphere and allowed to stand for 12 days, in a closed cabinet at 25° C. or in an oven at 50° C. After the experimental time, the majority of the samples remained solids/wet solids (experiments VDS02-12), which were harvested and analyzed by XRPD. […] All solids were analyzed by XRPD, and depending on the results obtained, some experiments were also analyzed by HPLC and TG/DSC.

Q: For C[C@H](CCC(=O)[O-])[C@H]1CC[C@H]2[C@@H]3[C@H](O)C[C@@H]4C[C@H](O)CC[C@]4(C)[C@H]3CC[C@]12C.[Na+] [Form B, sodium chenodeoxycholate], which XRPD ([1]; SLS08, EtOH:MeCN (1:1 v/v)) is on record?
A: S2

Q: And the XRPD ([1]; SLS09, EtOH:n-Heptane (1:1 v/v))?
A: S2

Q: What about the XRPD ([2]; EV08, MeOH:EtOAc (1:1 v/v) 20.49 mg/mL, solids after several hours (overnight) at 50° C. and atm. pres.) of the same compound?
A: S6 (similar to or

Q: What about the XRPD ([2]; EV09, MeOH:Acetone (1:1 v/v) 20.19 mg/mL, solids after 4 days at 50° C. and atm. pres.) of the same compound?
A: S5

Q: What about the XRPD ([3]; SDGR01, Ethanol (EtOH) 140 μL) of the same compound?
A: S2, l.c.

Q: What about the XRPD ([3]; SDGR03, 2,2,2-Trifluoroethanol (TFE) 90 μL) of the same compound?
A: S4

Q: What about the XRPD ([3]; SDGR05, MeOH:EtOAc (1:1 v/v) 260 μL) of the same compound?
A: S5

Q: And the XRPD ([3]; SDGR06, MeOH:Acetone (1:1 v/v) 240 μL)?
A: S5

Q: What about the XRPD ([3]; SDGR07, EtOH:MeCN (1:1 v/v) 190 μL) of the same compound?
A: S2, l.c.

Q: What about the XRPD ([3]; SDGR08, EtOH:n-Heptane (1:1 v/v) 220 μL) of the same compound?
A: S2, l.c.

Q: What about the XRPD ([4]; SL01, Ethanol (EtOH), 5° C.) of the same compound?
A: S2

Q: What about the XRPD ([4]; SL22, EtOH:MeCN (1:1 v/v), 5° C.) of the same compound?
A: S2, l.c.

Q: What about the XRPD ([4]; SL23, EtOH:n-Heptane (1:1 v/v), 5° C.) of the same compound?
A: S2

Q: And the XRPD ([4]; SL26, Ethanol (EtOH), 25-30° C.)?
A: S2

Q: And the XRPD ([4]; SL27, 2-Propanol (2-PrOH), 25-30° C.)?
A: l.c., S7

Q: And the XRPD ([4]; SL42, 2-Methyl-tetrahydrofuran, 25-30° C.)?
A: SM (P.O.

Q: And the XRPD ([4]; SL48, EtOH:MeCN (1:1 v/v), 25-30° C.)?
A: S2

Q: And the XRPD ([4]; SL49, EtOH:n-Heptane (1:1 v/v), 25-30° C.)?
A: S2

Q: What about the XRPD ([4]; SL52, Ethanol (EtOH), 40° C., solvent almost evap./consumed on 7th day) of the same compound?
A: S2, P.O.

Q: And the XRPD ([4]; SL56, 2-Propanol (2-PrOH), 50° C.)?
A: S7

Q: What about the XRPD ([4]; SL58, Cyclohexane, 50° C.) of the same compound?
A: SM (better

Q: And the XRPD ([4]; SL63, Xylenes, 50° C.)?
A: SM (better

Q: And the XRPD ([4]; SL65, Isopropyl acetate, 50° C.)?
A: SM (better

Q: What about the XRPD ([4]; SL71, Acetonitrile (MeCN), 50° C.) of the same compound?
A: SM (better

Q: And the XRPD ([4]; SL72, MEK:Toluene (1:1 v/v), 50° C.)?
A: SM (better

Q: What about the XRPD ([4]; SL73, MEK:2-MeTHF (1:1 v/v), 50° C.) of the same compound?
A: SM (better

Q: And the XRPD ([4]; SL74, EtOH:MeCN (1:1 v/v), 50° C.)?
A: S2, P.O.

Q: What about the XRPD ([4]; SL76, MEK:MTBE (1:1 v/v), 50° C.) of the same compound?
A: SM (better

Q: And the “XRPD (after evap.)” value ([5]; ST19: MEK slurry RT, evaporated at 30° C.)?
A: S1

Q: What about the “XRPD (after evap.)” value ([5]; ST20: MEK slurry RT, evaporated at 60° C.) of the same compound?
A: S1, P.O.

Q: What about the XRPD ([6]; VDS01, Methanol (MeOH) vapor, 25° C., 12 days, fine suspension, evap. at 30° C., 21 mbar, overnight) of the same compound?
A: S5

Q: What about the XRPD ([6]; VDS05, Ethanol (EtOH) vapor, diffusion at 50° C. after 12 days) of the same compound?
A: S2

Q: And the XRPD ([6]; VDS09, 2,2,2-Trifluoroethanol (TFE) vapor, diffusion at 50° C. after 12 days, slurry air-dried on filter paper)?
A: S4

Q: What about the XRPD ([6]; VDS12, Methyl ethyl ketone (MEK) vapor, diffusion at 50° C. after 12 days) of the same compound?
A: SM + pks.
